No constants are given. Whether binding was seen depends on the method and setting. Some results given as binding are weak or reduced against the parent protein; the word gives no strength. Values belong to the binder of their own block, whether it stands above or below them.
How the values were obtained:
[1] = target: CXCR4-VC (human) (UniProt P61073); test: BiFC, U-2 OS cells
[2] = target: CXCR4-VC (human) (UniProt P61073); test: BiFC and co-internalization assay, U-2 OS cells
[3] = target: CXCR4-VC (human) (UniProt P61073); test: BiFC, U-2 OS cells (FIG. 2S)
[4] = target: CXCR4-EGFP (human) (UniProt P61073); test: co-internalization of CXCR4-GFP after GPCRx agonist, U-2 OS cells
[5] = target: CXCR4-VN (human) (UniProt P61073); test: BiFC, U-2 OS cells (FIG. 2J)
[6] = target: CXCR4-VN (human) (UniProt P61073); test: BiFC, U-2 OS cells

Sequences of proteins named here, by UniProt entry; tags and fusion partners are left off.
UniProt P61073: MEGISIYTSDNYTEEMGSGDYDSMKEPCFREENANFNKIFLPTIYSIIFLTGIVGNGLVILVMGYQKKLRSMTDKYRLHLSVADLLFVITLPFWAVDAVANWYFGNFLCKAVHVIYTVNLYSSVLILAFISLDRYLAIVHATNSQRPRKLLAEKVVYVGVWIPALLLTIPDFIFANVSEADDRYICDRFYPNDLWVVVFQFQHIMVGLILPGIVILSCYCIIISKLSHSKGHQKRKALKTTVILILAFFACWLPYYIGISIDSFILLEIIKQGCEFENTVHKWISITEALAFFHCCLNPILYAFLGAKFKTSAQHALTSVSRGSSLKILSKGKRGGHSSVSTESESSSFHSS

binding [1]: binds | binding [2]: binds | binding [3]: binds | binding [4]: binds
B1: PTGER3-VN (receptor, human, UniProt P43115 1-390, looked up, not shown: small tags and cut ends)
chain: MKETRGYGGDAPFCTRLNHSYTGMWAPERSAEARGNLTRPPGSGEDCGSVSVAFPITMLLTGFVGNALAMLLVSRSYRRRESKRKKSFLLCIGWLALTDLVGQLLTTPVVIVVYLSKQRWEHIDPSGRLCTFFGLTMTVFGLSSLFIASAMAVERALAIRAPHWYASHMKTRATRAVLLGVWLAVLAFALLPVLGVGQYTVQWPGTWCFISTGRGGNGTSSSHNWGNLFFASAFAFLGLLALTVTFSCNLATIKALVSRCRAKATASQSSAQWGRITTETAIQLMGIMCVLSVCWSPLLIMMLKMIFNQTSVEHCKTHTEKQKECNFFLIAVRLASLNQILDPWVYLLLRKILLRKFCQIRYHTNNYASSSTSLPCQCSSTLMWSDHLER

binding [5]: binds | binding [6]: binds
B2: CALCR-VC (receptor, human, UniProt P30988 25-474, looked up, not shown: small tags and cut ends)
chain: AFSNQTYPTIEPKPFLYVVGRKKMMDAQYKCYDRMQQLPAYQGEGPYCNRTWDGWLCWDDTPAGVLSYQFCPDYFPDFDPSEKVTKYCDEKGVWFKHPENNRTWSNYTMCNAFTPEKLKNAYVLYYLAIVGHSLSIFTLVISLGIFVFFRSLGCQRVTLHKNMFLTYILNSMIIIIHLVEVVPNGELVRRDPVSCKILHFFHQYMMACNYFWMLCEGIYLHTLIVVAVFTEKQRLRWYYLLGWGFPLVPTTIHAITRAVYFNDNCWLSVETHLLYIIHGPVMAALVVNFFFLLNIVRVLVTKMRETHEAESHMYLKAVKATMILVPLLGIQFVVFPWRPSNKMLGKIYDYVMHSLIHFQGFFVATIYCFCNNEVQTTVKRQWAQFKIQWNQRWGRRPSNRSARAAAAAAEAGDIPIYICHQELRNEPANNQGEESAEIIPLNIIEQESSA
